Data: paper PMC6694192
No constants are given. Whether binding was seen depends on the method and setting. Binding seen in cells or lysates may run through a third protein. Some entries that bind do so weakly or less than the wild type.

Sequences of proteins named here, by UniProt entry; tags and fusion partners are left off.
UniProt Q15131: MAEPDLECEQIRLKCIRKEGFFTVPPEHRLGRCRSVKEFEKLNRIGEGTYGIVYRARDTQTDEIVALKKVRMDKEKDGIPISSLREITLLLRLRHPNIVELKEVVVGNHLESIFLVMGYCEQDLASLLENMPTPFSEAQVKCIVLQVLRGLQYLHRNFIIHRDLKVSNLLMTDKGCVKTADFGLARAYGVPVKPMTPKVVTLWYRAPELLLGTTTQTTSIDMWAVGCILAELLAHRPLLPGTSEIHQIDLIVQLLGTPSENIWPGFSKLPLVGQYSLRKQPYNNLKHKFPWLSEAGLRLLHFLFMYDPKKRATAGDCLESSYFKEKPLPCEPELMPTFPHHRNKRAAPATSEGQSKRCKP

Molecular target: Cyclin dependent kinase 10 (human (endogenous in HCEC)) (UniProt Q15131)
Experiment: co-IP; protein extracts of HCEC, migrating (18 hours post wounding) and non-migrating; precleared with protein A Sepharose, incubated overnight at 4 °C with anti-cdk10 and protein A-agarose; blot probed with anti-cdk10, stripped and probed with anti-ETS2

B1: V-ets erythroblastosis virus E26 oncogene homolog 2 (avian) (protein, UniProt P15036 1-469)
chain: MNDFGIKNMDQVAPVANSYRGTLKRQPAFDTFDGSLFAVFPSLNEEQTLQEVPTGLDSISHDSANCELPLLTPCSKAVMSQALKATFSGFKKEQRRLGIPKNPWLWSEQQVCQWLLWATNEFSLVNVNLQRFGMNGQMLCNLGKERFLELAPDFVGDILWEHLEQMIKENQEKTEDQYEENSHLTSVPHWINSNTLGFGTEQAPYGMQTQNYPKGGLLDSMCPASTPSVLSSEQEFQMFPKSRLSSVSVTYCSVSQDFPGSNLNLLTNNSGTPKDHDSPENGADSFESSDSLLQSWNSQSSLLDVQRVPSFESFEDDCSQSLCLNKPTMSFKDYIQERSDPVEQGKPVIPAAVLAGFTGSGPIQLWQFLLELLSDKSCQSFISWTGDGWEFKLADPDEVARRWGKRKNKPKMNYEKLSRGLRYYYDKNIIHKTSGKRYVYRFVCDLQNLLGFTPEELHAILGVQPDTED
Q: B1 was tested. Which binding did it give?
A: Its binding is “binds”.
